Drawing on publication PMC12279200, “Tumor‐Associated Glycan Exploits Adenosine Receptor 2A Signaling to Facilitate Immune Evasion” (Advanced Science, 2025), this text covers binding for one molecule.

The assay has as its target T1, full‐length recombinant A2AR protein (A2AR‐His, fragment A) (UniProt P29274 1-412).
T1 construct: adenosine receptor 2A (A2AR), full-length (fragment A); the printed end of fragment F (aa 412) fits the human protein; captured on beads by an anti-His antibody; also called full‐length N‐His‐A2AR; A2AR‐full length; source: Escherichia coli, His‐tagged recombinant protein; not shown: His, N-terminal, kept
Put plainly: Luminex bead-based assay; A2AR‐His full length or fragments captured on Luminex beads conjugated with anti‐His antibody; TRAX in solution, detected by antibody and PE-conjugated antibody; with PBS, 30 µM GHCer or 30 µM GH‐biotin; PBS with 1% BSA, 37 °C, 60 min; signals normalised to full‐length A2AR/PBS/TRAX; both purified.

These are yes or no findings as the source states them, for the method shown. Some binding calls cover weakened binding; strength is not graded here. Sequences can lack the tags named with a protein.

B1: recombinant TRAX (His‐tagged) (natural protein, UniProt Q99598 1-290, looked up)
chain: MSNKEGSGGFRKRKHDNFPHNQRREGKDVNSSSPVMLAFKSFQQELDARHDKYERLVKLSRDITVESKRTIFLLHRITSAPDMEDILTESEIKLDGVRQKIFQVAQELSGEDMHQFHRAITTGLQEYVEAVSFQHFIKTRSLISMDEINKQLIFTTEDNGKENKTPSSDAQDKQFGTWRLRVTPVDYLLGVADLTGELMRMCINSVGNGDIDTPFEVSQFLRQVYDGFSFIGNTGPYEVSKKLYTLKQSLAKVENACYALKVRGSEIPKHMLADVFSVKTEMIDQEEGIS
notes: translin-associated factor X (TRAX); source: Escherichia coli, His‐tagged recombinant protein
For the molecule B1, the binding result is on record as “binds”.
